These are yes or no findings as the source states them, for the method shown. Binding seen in cells or lysates may run through a third protein. Some entries that bind do so weakly or less than the wild type.
B1: mouse wild type (WT) BRIL (protein, UniProt O88728 1-134)
chain: MDTSYPREDPRAPSSRKADAAAHTALSMGTPGPTPRDHMLWSVFSTMYLNLCCLGFLALVHSVKARDQKMAGNLEAARQYGSKAKCYNILAAMWTLVPPLLLLGLVVTGALHLSKLAKDSAAFFSTKFDEEDYN

Amino acid sequences for entries named in this document (tags omitted).
UniProt P49069: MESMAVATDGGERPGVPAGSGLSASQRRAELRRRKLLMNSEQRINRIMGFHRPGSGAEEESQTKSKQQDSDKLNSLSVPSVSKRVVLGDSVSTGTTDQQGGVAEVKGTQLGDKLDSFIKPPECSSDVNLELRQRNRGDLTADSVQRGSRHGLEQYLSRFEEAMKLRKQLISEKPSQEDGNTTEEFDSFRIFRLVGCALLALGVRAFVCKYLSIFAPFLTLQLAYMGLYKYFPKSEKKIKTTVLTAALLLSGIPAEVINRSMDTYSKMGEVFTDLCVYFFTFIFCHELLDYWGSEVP

What was measured:
[1] = molecular target: T1, mouse wild type (WT) BRIL (mouse) (UniProt O88728); experiment: co-IP; HEK293 cells co-transfected, lysates after 24 h (50 mM Tris-HCl pH 7.4, 150 mM NaCl, 1 mM EDTA, 1% NP-40), immunoprecipitated with anti-BRIL or anti-FLAG antibody and protein G dynabeads at 4 °C, Western blotting
T1 sequence: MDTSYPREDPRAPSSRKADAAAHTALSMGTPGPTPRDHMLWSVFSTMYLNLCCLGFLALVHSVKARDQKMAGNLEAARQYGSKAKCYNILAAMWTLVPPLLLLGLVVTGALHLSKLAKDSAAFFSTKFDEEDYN

[2] = molecular target: T1, mouse wild type (WT) BRIL (mouse); experiment: co-IP; MLO-A5 cells co-transfected, lysates after 24 h (50 mM Tris-HCl pH 7.4, 150 mM NaCl, 1 mM EDTA, 1% NP-40), BRIL co-IP with protein G dynabeads at 4 °C, Western blotting
[3] = molecular target: C-terminally FLAG-tagged CAML (calcium-modulating cyclophilin ligand) (UniProt P49069); experiment: co-IP; HEK293 cells co-transfected, lysates after 24 h (50 mM Tris-HCl pH 7.4, 150 mM NaCl, 1 mM EDTA, 1% NP-40), immunoprecipitated with anti-BRIL or anti-FLAG antibody and protein G dynabeads at 4 °C, Western blotting

Row | Molecule | binding [1] | binding [2] | binding [3]
1 | C-terminally FLAG-tagged CAML (calcium-modulating cyclophilin ligand) (from UniProt P49069 1-296) | binds | binds | 
2 | B1 |  |  | binds

From paper PMC8875491
